Test results taken from PubChem BioAssay AID504444 (National Center for Advancing Translational Sciences (NCATS), 2011).
The campaign covered roughly 360,000 compounds. About 7,500 (2.1%) were called active. Inconclusive means that the source gave no clear call. Such entries were picked first, then a sample of the others. The call rests on the fitted dose curve; in most records, active means well fitted inhibition curve with a large enough effect; inconclusive means small, poorly fitted or top-dose-only effect, or effect the other way; inactive means flat fitted curve, though single readings scatter. Potencies beside an inconclusive call are fits to weak or partial responses and may not hold up.

assay: Nrf2 qHTS screen for inhibitors; conditions: A549 ARE-Fluc reporter, luciferase luminescence, 18-24 h; series mostly up to 46 µM; further: nearly all actives have a fitted effect of over 60% in size
How it was run: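 Nrf2 activity is the BugLite luminescence, read 15 min after reagent at room temperature, following CellTiter-Fluor cytotoxicity readout (30 min, 37C). Compound titrations were applied for 18-24 h to 5000 A549 ARE_Fluc cells/well in 5% FBS OPTI-MEM.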
Potency means the concentration at half of the fitted maximal effect.

Row | SMILES | Potency
1 | O=C(Nc1ccc(Cl)c(C(F)(F)F)c1)C(Cc1ccccc1)NS(=O)(=O)c1cccc2nsnc12 (stereo unspecified) | inactive
2 | O=C(NNC(=O)c1ccc(Br)s1)c1ccc(F)c(S(=O)(=O)N2CCOCC2)c1 | inconclusive: 20.6 µM [falling, single point]
3 | CCOc1ccc(N2C(=O)CC(C(C)c3ccccc3)C2=O)cc1 (stereo unspecified) | inconclusive: 3.66 µM [activator, full curve, poor fit]
4 | CN(C)CCCNCC(=O)Nc1ccccc1N1CCOCC1 | inactive
5 | CCOC(=O)/C(=C\C=C\N1CCOCC1)C(C)=O | inconclusive: 7.31 µM [activator, partial curve, poor fit]
6 | COc1ccc(OC)c(S(=O)(=O)N2CCC3(CC2)OCCN3S(=O)(=O)c2ccccc2)c1 | inactive
7 | COc1cccc(NC(=O)CN(C)C(=O)c2ccc3ccccc3c2)c1 | inconclusive: 23.1 µM [falling, single point]
8 | COCCCNc1nc(N)c([N+](=O)[O-])c(Nc2ccccc2OC)n1 | inconclusive: 13 µM [falling, partial curve]
9 | COC(=O)/C(=C\c1ccc([N+](=O)[O-])o1)NC(=O)c1ccccc1 | inconclusive: 35.5 µM [falling, single point]
10 | O=C(Nc1nnc(C2=COCCO2)o1)c1ccc([N+](=O)[O-])cc1 | inconclusive: 11.6 µM [falling, partial curve, poor fit]
11 | CCOC(=O)Cc1csc(/N=C/c2c(O)n(-c3ccc(C)c(C)c3)c(=O)c3ccccc23)n1 | inconclusive: 2.06 µM [falling, single point]
12 | O=C(COC(=O)CCc1ccccc1)NC1CCS(=O)(=O)C1 (stereo unspecified) | inconclusive: 29.1 µM [activator, single point]
13 | COc1ccc(CN(C)CCCn2cnc(C(=O)Nc3ccc(C)c(C)c3)n2)cc1OC | inactive
14 | O=c1cc(-c2ccc(OCc3ccccc3)cc2)oc2cc(OCc3ccccc3)cc(OCc3ccccc3)c12 | inactive
15 | O=C(NCCc1ccc(Cl)cc1)c1ccc2c(c1)N(Cc1ccccc1F)C(=O)c1ccccc1S2(=O)=O | inconclusive: 3.26 µM [activator, partial curve, poor fit]
16 | COc1ccc(Nc2nccc3c2nnn3C)cc1 | inconclusive: 6.51 µM [activator, full curve]
17 | FC(F)(F)c1cnc(Sc2nc3nccc(-c4ccc(Cl)cc4)n3n2)c(Cl)c1 | inconclusive: 20.6 µM [falling, single point]
18 | O=C(CCCn1ccc2cc(S(=O)(=O)N3CCCC3)ccc21)NCc1ccc(Cl)cc1 | inconclusive: 29.1 µM [falling, single point]
19 | COCCCn1c(CCC(=O)O)ccc1-c1cccs1 | inactive
20 | Cc1onc(-c2ccccc2)c1C(=O)NCc1cccnc1 | inconclusive: 18.4 µM [activator, single point]
21 | CC(C)(C)c1ccc(S(=O)(=O)Nc2ccc3c(c2)COC3=O)cc1 | inconclusive: 23.1 µM [falling, single point]
22 | CCN(CC)c1ccc(/C=N/NC(=O)c2c(Cl)cnn2C)c(O)c1 | inconclusive: 23.1 µM [falling, single point]

Nos. 15–18, reprinted for reference:
Row | SMILES | Potency
15 | O=C(NCCc1ccc(Cl)cc1)c1ccc2c(c1)N(Cc1ccccc1F)C(=O)c1ccccc1S2(=O)=O | inconclusive: 3.26 µM [activator, partial curve, poor fit]
16 | COc1ccc(Nc2nccc3c2nnn3C)cc1 | inconclusive: 6.51 µM [activator, full curve]
17 | FC(F)(F)c1cnc(Sc2nc3nccc(-c4ccc(Cl)cc4)n3n2)c(Cl)c1 | inconclusive: 20.6 µM [falling, single point]
18 | O=C(CCCn1ccc2cc(S(=O)(=O)N3CCCC3)ccc21)NCc1ccc(Cl)cc1 | inconclusive: 29.1 µM [falling, single point]

(list continues)

Row | SMILES | Potency
23 | NC(=O)c1ccccc1NC(=O)c1ccc2ccccc2c1 | inconclusive: 2.31 µM [activator, partial curve]
24 | Nc1ccccc1C(=O)N1CCc2ccccc21 | inconclusive: 20.6 µM [activator, partial curve]
25 | Cc1ccc(-c2nc3ncccc3o2)cc1NC(=O)c1ccccc1Br | inconclusive: 2.91 µM [falling, partial curve, poor fit]
26 | COc1cccc(/C=C2\SC(=O)N(CCC(=O)NNC(=O)c3cccc(Cl)c3)C2=O)c1 | inactive
27 | CC[C@]1(C(=O)OC)[C@H]2C(=O)N(Cc3ccccc3)C(=O)[C@H]2[C@H]2CN=C(SCC(=O)c3ccccc3)N21 | inconclusive: 23.1 µM [activator, single point]
28 | CCCCSC1=N/C(=C/c2ccsc2)C(=O)N1c1ccccc1 | inactive
29 | O=C(NCc1ccccc1)c1ccc(CS(=O)Cc2ccc(Cl)cc2)o1 (stereo unspecified) | inconclusive: 32.6 µM [falling, single point]
30 | O=C(CSc1nnc(COc2ccc(Cl)cc2)o1)N1CCOCC1 | inconclusive: 29.1 µM [activator, single point]
31 | Cc1ccc(CNC(=O)c2cc3c(s2)-c2ccc(Cl)cc2SC3)cc1 | inconclusive: 32.6 µM [falling, single point]
32 | CCNC(=S)NCc1ccc(OC)c(OC)c1 | inactive
33 | CCOCCCNC(=S)N1CCCC(c2nc3ccc(C)cc3[nH]2)C1 (stereo unspecified) | inconclusive: 8.2 µM [falling, partial curve]
34 | CCC/C(O)=C1\C(=O)CCCC1=NCCc1ccc(OCC)c(OCC)c1 | inconclusive: 11.6 µM [falling, partial curve, poor fit]
35 | CN(C(=O)C1CCC(=O)N(Cc2cccc(F)c2)C1)C1CCCCC1 (stereo unspecified) | inconclusive: 5.17 µM [activator, partial curve, poor fit]
36 | COc1ccccc1-c1cc2nc(C)cc(C)n2n1 | inconclusive: 0.461 µM [falling, partial curve, poor fit]
37 | CCCCN(CCCNC(=O)CN1C(=O)COc2ccccc21)c1ccccc1 | inconclusive: 23.1 µM [falling, partial curve, poor fit]
38 | CCCCCC(=O)Nc1cccc(S(=O)(=O)NC2=NCCCCC2)c1 | inconclusive: 25.9 µM [falling, single point]
39 | COc1ccc(NS(=O)(=O)c2cccc(C(=O)NCC(c3ccc(OC)cc3)N3CCCC3)c2)cc1 (stereo unspecified) | inactive
40 | CCCCN1C(=O)C2Cc3c([nH]c4ccccc34)CN2C1=S (stereo unspecified) | inconclusive: 9.2 µM [falling, partial curve, poor fit]
41 | CCc1nnc(NC(=O)CSc2nccn2-c2cccc(C)c2C)s1 | inconclusive: 3.26 µM [falling, full curve, poor fit]
42 | CCCCCCN(C(=O)CCl)c1ccccc1 | inactive
43 | CN(CC(=O)Nc1c(Cl)cccc1Cl)C(=O)c1cccc(-n2cccc2)c1 | inactive
44 | CCOc1ccc(NC(=O)Cn2c(=O)n(Cc3ccc(C(=O)NCc4ccc(C)cc4)cc3)c(=O)c3ccccc32)cc1 | active: 18.4 µM

Row | SMILES | Potency
45 | CC(=NNC(=S)N1CCN(c2ccccn2)CC1)c1ccccn1 | inactive
46 | CCCCc1nc2cc(C(=O)N(C)C3CCOCC3)ccc2o1 | inactive
47 | Cc1cc(N2CCN(C)CC2)ccc1NC(=O)c1c2c(nc3ccccc13)CCN(Cc1ccccc1)C2 | active: 18.4 µM
48 | CC(c1nc2ccccc2c(=O)[nH]1)N1CCCN(S(=O)(=O)c2ccc(F)cc2)CC1 (stereo unspecified) | inconclusive: 23.1 µM [falling, partial curve, poor fit]
49 | COc1ccc(-c2cc(N)n(S(=O)(=O)c3ccc(F)cc3)n2)cc1OC | active: 16.4 µM
50 | CC(=O)C1=C(C)NC(=O)NC1c1ccc(OC2CCCC2)cc1 (stereo unspecified) | inconclusive: 16.4 µM [falling, partial curve, poor fit]
51 | C#Cc1ccc([C@H]2C=C(C(=O)N3CCN(Cc4ccccc4)CC3)O[C@@H](OCc3ccc(CO)cc3)C2)cc1 | inconclusive: 20.6 µM [falling, partial curve, poor fit]
52 | N#Cc1ccc(OCC(=O)OCC(=O)c2ccc[nH]2)cc1 | inactive
53 | CN(C)CCCNc1ncnc2ccc(-c3ccc4c(c3)OCO4)cc12 | inconclusive: 32.6 µM [falling, single point]
54 | O=C(OCC(=O)N1CCOCC1)c1ccc(Cl)cc1[N+](=O)[O-] | inconclusive: 14.6 µM [activator, partial curve, poor fit]
55 | COc1ccccc1N1CCN(S(=O)(=O)c2ccc3c4c(cccc24)C(=O)N3)CC1 | inconclusive: 29.1 µM [falling, partial curve, poor fit]
56 | O=c1c2sccc2nc(SCc2cc(=O)n3cc(Cl)ccc3n2)n1Cc1ccccn1 | inconclusive: 14.6 µM [activator, partial curve, poor fit]
57 | C#CCN(C(=O)c1cc(COc2ccc(C)c(C)c2)on1)C1CCCCC1 | inconclusive: 32.6 µM [falling, single point]
58 | CN([C@@H](Cc1ccc(OS(=O)(=O)c2cccc3cnccc23)cc1)C(=O)N1CCN(c2ccccc2)CC1)S(=O)(=O)c1cccc2cnccc12 | inconclusive: 8.2 µM [falling, partial curve, poor fit]
59 | Cc1cc(OCc2cc(C(=O)N3CCN(C)C(=O)[C@@H]3C)no2)cc(C)c1Cl | active: 20.6 µM
60 | CC(=O)Nc1ccc(S(=O)(=O)Nc2nc3ccc(C)cc3s2)cc1 | inconclusive: 32.6 µM [activator, single point]
61 | CCOC(=O)c1coc(C(=O)OCC)c1C(=O)OCC | inactive
62 | O=C(OCC(=O)N1N=C(c2ccc(Cl)cc2)CC1c1ccco1)c1ccccc1O (stereo unspecified) | inactive
63 | COCCCNC(=O)Cn1c(=O)n(Cc2ccc(C(=O)NCCc3ccc(OC)c(OC)c3)cc2)c(=O)c2ccccc21 | inconclusive: 13 µM [falling, partial curve, poor fit]
64 | COc1ccc(C(=O)Nc2nnc(S(=O)(=O)N3CCC(C)CC3)s2)cc1OC | inconclusive: 6.51 µM [falling, single point]
65 | Cn1cccc1C(=O)Nc1ccc(Cl)c(S(=O)(=O)N2CCCCC2)c1 | inconclusive: 20.6 µM [falling, single point]
66 | COCCn1nnnc1C(c1cccc(OC)c1OC)N1CCN(C(=O)c2ccco2)CC1 (stereo unspecified) | inconclusive: 20.6 µM [activator, partial curve, poor fit]
